In patent US9468615B2, “Use of malononitrilamides in neuropathic pain” (AL-GIAX Pharmaceuticals GMBH, priority 2010, dated 2016):
At least one compound was matched to its structure with a doubt left.

Assays:
[1] = system: severe spinal cord contusion injury in the rat; assay: Mechanical sensitivity (von Frey, Up-Down) after severe spinal cord contusion injury, treatment DPO 1-7; type: in vivo
[2] = system: severe spinal cord contusion injury in the rat; assay: Mechanical sensitivity (von Frey, Up-Down) after severe spinal cord contusion injury, treatment DPO 28-35; type: in vivo; settings: 10 mg/kg/day by gavage DPO 28 till DPO 35
Protocol: (§1) Thirteen week-old female Lewis rats (Charles River, Sulzfeld Germany) were housed under a 12:12 h dark/light regime and allowed free access to water and food. After one week of habituation the animals underwent general anesthesia with a mixture of isoflurane and air (induction: 5% isoflurane, maintenance: 2.2% isofluorane). A Th10 laminectomy was performed without rupturing the dura and a severe contusive SCI (25 gem NYU/MASCIS II impactor) (Gruner, 1992 #3) was induced. After suturing muscle and skin, a subcutaneous (s.c.) injection of 5 ml of Ringers Lactate was given. Bladders were emptied manually 2 times a day until spontaneous voiding returned (usually within 1 week). The lesion severity was verified by the impact velocity and contusion depth of the impactor rod. Animals with an impact velocity error >5% were excluded from further analysis. After injury, individual rats were randomly assigned into a treatment group. The following groups were used:
The mechanical sensitivity response was measured as the direct pressure stimulus required eliciting foot withdrawal in nonrestrained conditions. All tests were conducted in the morning between 7:30 and 10:30 am and the person performing the behavioral tests was blinded to the experimental groups. Animals were habituated to the testing apparatus for at least 20 min before testing. Each animal was subjected to the stimulation of a series of von Frey filaments ranging from 0.4 to 15 g (log force 3.61, 3.84, 4.08, 4.31, 4.56, 4.74, 4.93 and 5.18) using the Up-Down paradigm according to Chaplan (Chaplan et al., 1994). The selected von Frey filament was pressed against the plantar surface of the hind paw to the point of 30° bending for 3 s. Paw withdrawal response was considered as the positive response. The 50% threshold force needed for paw withdrawal was calculated for both hind paws of each rat and the mean value of both hind paws was used to represent the mechanical sensitivity of this animal.
Group 2: SCI+HR 325 (10 mg/kg/day) in vehicle by gavage for 7 days, from DPO 28 till DPO 35 […]

[3] = system: severe spinal cord contusion injury in the rat; assay: Acetone test (cold chemical stimulus) after severe spinal cord contusion injury, treatment DPO 28-35; type: in vivo; settings: 10 mg/kg/day by gavage DPO 28 till DPO 35
Protocol: as §1
Group 2: SCI+HR 325 (10 mg/kg/day) in vehicle by gavage for 7 days, from DPO 28 till DPO 35
Group 3: SCI+FK 778 (10 mg/kg/day) in vehicle by gavage for 7 day, from DPO 28 till DPO 35
A slightly modified method of De la Calle and colleagues (De la Calle et al., 2002) was used for the determination of the reactivity to a cold chemical stimulus. The rat was placed in acrylic cages on top of a wire mesh grid, which allowed access to the paws, and acetone was applied to the plantar surface of the hind paw. To do this, 100 μl of acetone was sprayed onto the plantar surface of the rat's hind leg from below the grid with a syringe holding 2.5 ml. The time spent with the leg withdrawn from floor during the 60 s following exposure to acetone was recorded. Both hind legs were tested in each animal with an interval of 5-10 min between each test. The average reaction time between the two legs was taken for further analysis. A minimal value of 1 s was assigned to convey a fast or brisk reaction, while 0 was assigned if there was no reaction at all. […]

[4] = system: spinal cord contusion injury; assay: Mechanical sensitivity (von Frey, Up-Down), chronic central neuropathic pain three months after spinal cord contusion injury, treatment DPO 84-91; type: in vivo, rat; settings: 10 mg/kg/day by gavage DPO 84 till DPO 91
Protocol: Thirteen week-old female Lewis rats (Charles River, Sulzfeld Germany) were housed under a 12:12 h dark/light regime and allowed free access to water and food. After one week of habituation the animals underwent general anesthesia with a mixture of isoflurane and air (induction: 5% isoflurane, maintenance: 2.2% isofluorane). A Th10 laminectomy was performed without rupturing the dura and a severe contusive SCI (25 gem NYU/MASCIS II impactor) (Gruner, 1992 #3) was induced. After suturing muscle and skin, a subcutaneous (s.c.) injection of 5 ml of Ringers Lactate was given. Bladders were emptied manually 2 times a day until spontaneous voiding returned (usually within 1 week). The lesion severity was verified by the impact velocity and contusion depth of the impactor rod. Animals with an impact velocity error >5% were excluded from further analysis. After injury, individual rats were randomly assigned into a treatment group. The following groups were used: The mechanical sensitivity response was measured as the direct pressure stimulus required eliciting foot withdrawal in nonrestrained conditions. All tests were conducted in the morning between 7:30 and 10:30 am and the person performing the behavioral tests was blinded to the experimental groups. Animals were habituated to the testing apparatus for at least 20 min before testing. Each animal was subjected to the stimulation of a series of von Frey filaments ranging from 0.4 to 15 g (log force 3.61, 3.84, 4.08, 4.31, 4.56, 4.74, 4.93 and 5.18) using the Up-Down paradigm according to Chaplan (Chaplan et al., 1994). The selected von Frey filament was pressed against the plantar surface of the hind paw to the point of 30° bending for 3 s. Paw withdrawal response was considered as the positive response. The 50% threshold force needed for paw withdrawal was calculated for both hind paws of each rat and the mean value of both hind paws was used to represent the mechanical sensitivity of this animal. Group 2: SCI+HR 325 (10 mg/kg/day) in vehicle by gavage for 7 days, from DPO 84 till DPO 91

[5] = system: spinal cord contusion injury; assay: Acetone test, chronic central neuropathic pain three months after spinal cord contusion injury, treatment DPO 84-91; type: in vivo, rat; settings: 10 mg/kg/day by gavage DPO 84 till DPO 91
[6] = system: chronic constriction injury (CCI) of the sciatic nerve; assay: Mechanical sensitivity (von Frey, Up-Down) after chronic constriction injury (CCI) of the sciatic nerve; type: in vivo, rat
[7] = system: chronic constriction injury (CCI) of the sciatic nerve; assay: Acetone test after chronic constriction injury (CCI) of the sciatic nerve; type: in vivo, rat
[8] = system: partial ligation of the sciatic nerve; assay: Mechanical sensitivity (von Frey, Up-Down) after partial ligation of the sciatic nerve; type: in vivo, rat
Protocol: The mechanical sensitivity response was measured as the direct pressure stimulus required eliciting foot withdrawal in nonrestained conditions. Animals were habituated to the testing apparatus for at least 20 min before testing. Each animal was subjected to the stimulation of a series of von Frey filaments ranging from 1.0 to 60 g using the Up-Down paradigm according to Chapter (Chaplan et al., 1994). The selected von Frey filament was pressed against the plantar surface of the hind paw to the point of 30° bending for 3 s. Paw withdrawal response was considered as the positive response. The 50% threshold force needed for paw withdrawal was calculated for both hind paws of each rat. The methods of Seltzer et al. (1990) were followed. The dorsum of the sciatic nerve was carefully freed from surrounding connective tissues at a site near the trochanter just distal to the point at which the posterior biceps semitendinosus nerve branches off the common sciatic nerve. The nerve was fixed in its place by pinching the epineurium on its dorsal aspect, taking care not to press the nerve against underlying structures. An 8-0 (Polyamide 6) suture was inserted into the nerve and tightly ligated so that the dorsal ⅓-½ of the nerve thickness was trapped in the ligature (Seltzer et al., 1990). […]

[9] = system: partial ligation of the sciatic nerve; assay: Acetone test after partial ligation of the sciatic nerve; type: in vivo, rat
[10] = DPO 21, after daily oral treatment DPO 14 till DPO 21, T-test n.s.
[11] = DPO 28, one week after end of treatment (DPO 14 till DPO 21)

## Cc1cc(NC(=O)/C(C#N)=C(\O)C2CC2)ccc1C(F)(F)F [HR-325, 1(3-methyl-4-trifluoromethylphenyl-carbamoyl)-2-cyclopropyl-2oxo-propionitrile]
[1]; DPO 28, all dosage groups 10, 20 and 30 mg/kg/day by gavage DPO 1 till DPO 7, one-way ANOVA p<0.001, FIG. 1
  mechanical hypersensitivity (50% threshold force for paw withdrawals) vs vehicle: significantly reduced
[1]; all tested dosages 10, 20 and 30 mg/kg/d, gavage DPO 1-7
  development of mechanical allodynia after experimental spinal cord injury (conclusion): able to suppress the development of mechanical allodynia
[1]; end of experiment DPO 63, 10, 20 and 30 mg/kg/day by gavage DPO 1 till DPO 7, one-way ANOVA p<0.001
  mechanical hypersensitivity (50% threshold force for paw withdrawals), difference to vehicle controls: statistically significant difference between the treated animals and the vehicle controls remained
[2]
  reversal of mechanical allodynia after experimental spinal cord injury (conclusion): able to reverse mechanical allodynia
[2]; DPO 35, one-way ANOVA p<0.001, FIG. 2
  withdrawal threshold vs vehicle control animals: significantly higher
[2]; end of experiment DPO 77, p<0.001
  withdrawal threshold, difference to vehicle controls: statistically significant difference between the treated animals and the vehicle controls remained
[3]
  reversal of cold allodynia after experimental spinal cord injury (conclusion): able to reverse cold allodynia
[3]; DPO 56, ANOVA p<0.001, Bonferroni post-hoc
  duration of response to acetone exposure vs vehicle controls: responded significantly shorter
[3]; end of experiment DPO 70, p<0.01
  duration of response to acetone exposure, differences to vehicle controls: differences remained unchanged
[4]; DPO 91, Student T-test p<0.001, FIG. 4
  withdrawal threshold vs vehicle control animals: significantly higher
[4]; allodynia lasting 3 months
  reversal of chronic mechanical allodynia caused by spinal cord trauma (conclusion): can reverse a chronic mechanical allodynia
[4]; end of experiment DPO 105
  withdrawal threshold, difference to vehicle group: comparable difference between the groups
[5]; DPO 91, Student T-test p<0.001, FIG. 5
  reaction to acetone exposure, difference to vehicle group: first significant differences between the two groups
[5]; allodynia lasting 3 months
  reversal of chronic cold allodynia caused by spinal cord trauma (conclusion): can reverse a chronic cold allodynia
[5]; end of experiment DPO 105, p<0.01
  reaction to acetone exposure, difference to vehicle group: comparable difference between the groups
[6]; [10]
  withdrawal threshold, ipsilateral vs contralateral paw: not significantly different from the contralateral paw
[6]; [11]
  withdrawal threshold, ipsilateral vs contralateral paw: still comparable with the contralateral paw
[7]; DPO 21, after daily 10 mg/kg DPO 14-21, before treatment average reaction time 16 s (DPO 7) and 23 s (DPO 14), FIG. 7
  reactivity to the acetone in the ipsilateral paw: almost diminished
[7]; DPO 28, one week after end of treatment, T-test n.s. vs contralateral paw
  reactivity to the acetone exposure in the ipsilateral paw: still very low and comparable to the reactivity in the contralateral paw
[8]; [10]
  withdrawal threshold, ipsilateral vs contralateral paw: not significantly different from the contralateral paw
[8]; [11]
  withdrawal threshold, ipsilateral vs contralateral paw: still comparable with the contralateral paw
[9]; DPO 21, after daily 10 mg/kg DPO 14-21, before treatment average reaction time 4 s (DPO 7) and 8 s (DPO 14), FIG. 9
  reactivity to the acetone in the ipsilateral paw: completely diminished
[9]; DPO 28, one week after end of treatment
  reactivity to the acetone exposure: did still not show any reactivity to the acetone exposure
